The record followed here is patent US8283445B2, “Extracellular-signal-regulated-kinase (ERK) heteropolyligand polypeptide” (Intrexon Corporation, priority 2006, dated 2012).

This series concerns Cos7 cells. In words: Subcellular localization by immunostaining for c-Myc epitope tag (fluorescence microscopy). Format: cell-based.

B1: SEQ ID NO:1: ERK heteropolyligand A-S1-B-S2-C-S3-D-S4-E-S5-F of SEQ ID NOS:91, 97, 28, 29, 30, 31, Xaa alanine, with spacers (protein)
chain: MPKKKPTPIQLNPAAKGRKPRDLELPAAAATGPLAPGPFGAGAYSPTAPTYSPTAPKKKGGGGAPRAPGGRRAGAGRRPRAPAKLSFFFPS
modifications: Synthetic polyligand
With B1, the Subcellular localization entry runs as follows: (fused to ER localization signal and c-Myc tag, Cos7 cells, FIG. 13A) “endoplasmic reticulum”; (fused to nuclear localization signal and c-Myc tag, FIG. 16) “nucleus”; (fused to nuclear-exclusion localization signal and c-Myc tag, FIG. 17) “cytoplasm”.
